Assay results: US20160039903A1 (Stanford University, published 2016)
These are yes or no findings as the source states them, for the method shown. Some binding calls cover weakened binding; strength is not graded here.

By UniProt entry, the sequences of proteins in these tests, tags left out. Residues count along the entry.
UniProt Q9EP73, residues 19-132: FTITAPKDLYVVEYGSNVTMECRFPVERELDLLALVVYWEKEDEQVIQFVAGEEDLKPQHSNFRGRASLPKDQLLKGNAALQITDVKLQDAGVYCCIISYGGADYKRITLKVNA

Biological target: mouse PD-L1 displayed on yeast (mouse) (UniProt Q9EP73)
Experiment: competition flow cytometry on yeast displaying mouse PD-L1; competitor probe: labeled native PD-1 streptavidin tetramer

- binding: binds
B1: wild-type human PD-1 IgV domain (residues 26-147), native PD-1 mimic polypeptide (receptor)
chain: DSPDRPWNPPTFSPALLVVTEGDNATFTCSFSNTSESFVLNWYRMSPSNQTDKLAAFPEDRSQPGQDCRFRVTQLPNGRDFHMSVVRARRNDSGTYLCGAISLAPKAQIKESLRAELRVTERHHHHHHHH
notes: Soluble monomer secreted from High Five insect cells; also called wild-type hPD-1; WT PD-1 monomer
